# Several values for one entry are separate records, joined by “and”; a condition that tells them apart may be missing. Identical values can stand only once. The campaign covered roughly 350,000 compounds. About 1,200 (0.34%) were called active. The shares of active, inactive and inconclusive entries below differ from those in the screen. The call rests on the fitted dose curve; in most records, active means well fitted inhibition curve with a large enough effect; inconclusive means small, poorly fitted or top-dose-only effect; inactive means no such curve, though single readings can be large or run the other way. Potencies of inconclusive entries are doubtful fits and often do not repeat.
# Protein sequences, listed by entry. Tags and fused reporters are not part of them.
# UniProt P27695, whole entry, looked up: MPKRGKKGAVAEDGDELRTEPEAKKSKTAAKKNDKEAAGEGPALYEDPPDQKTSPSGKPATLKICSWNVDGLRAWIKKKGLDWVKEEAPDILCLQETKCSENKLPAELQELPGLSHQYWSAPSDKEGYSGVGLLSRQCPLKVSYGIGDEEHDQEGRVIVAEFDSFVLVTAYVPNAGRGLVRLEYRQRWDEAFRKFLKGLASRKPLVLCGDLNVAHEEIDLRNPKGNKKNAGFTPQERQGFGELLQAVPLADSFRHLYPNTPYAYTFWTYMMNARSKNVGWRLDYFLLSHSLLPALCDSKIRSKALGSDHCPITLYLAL
# Biological target: DNA repair nuclease/redox regulator APEX1 (Homo sapiens) (UniProt P27695)
# Experiment: qHTS Assay for Inhibitors of the Human Apurinic/apyrimidinic Endonuclease 1 (APE1); further: nearly all actives have a fitted effect of over 55% in size;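 on activity change, negative = inhibition: plate controls were vehicle for no effect and reference inhibitor for full effect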
# Details: recombinant APE1, TAMRA/BHQ-2 abasic DNA cleavage fluorescence; activity change, negative = inhibition: at 65.8 µM (top of the series)
# Procedure, shortened: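 0.75 nM APE1 + cpd, 15 min RT; start w/ 50 nM TAMRA/BHQ-2 THF-abasic dsDNA; kinetic fluor 525/598 nm ×3 reads @60 s; Δ(read3−read1); normalized to DMSO and NSC13755 control wells.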
# Potency means the concentration at half of the fitted maximal effect.
SMILES,"activity change, negative = inhibition",Potency
CN(c1ccc(OCC(=O)OCC(=O)Nc2ccc(Br)cc2)cc1)S(=O)(=O)c1cccs1,inactive: -7.14%,–
Cc1ccc(-n2c(=O)c(C#N)cc3c(=O)n4ccccc4nc32)cc1,–,"inconclusive: 39.8 µM [inhibitor, single point]"
Cc1coc(C)c1C(=O)CC1(O)C(=O)N(C)c2ccc(Cl)cc21 (configuration not stated),–,"inconclusive: 44.7 µM [inhibitor, single point]"
Clc1ccc(C(Cn2ccnc2)OCc2c(Cl)cccc2Cl)c(Cl)c1 (configuration not stated),–,"inconclusive: 11.2 µM [inhibitor, partial curve, poor fit] and inconclusive: 18.9 µM [inhibitor, single point]"
O=C(CN1CCOCC1)N/N=C/c1cc2ccccc2nc1Cl,–,"inconclusive: 2 µM [inhibitor, full curve, poor fit]"
O=C(COC(=O)Cc1cccc(C(F)(F)F)c1)NCc1ccco1,–,"inconclusive: 10.6 µM [inhibitor, partial curve]"
CCCCNC(=S)Nc1ccc(C(F)(F)F)cc1,–,"inconclusive: 28.2 µM [inhibitor, partial curve]"
CO[C@@H]1COC(=O)[C@H](Cc2ccccc2)NC(=O)C/C=C\[C@@H](C)[C@H](OC)COC(=O)[C@@H](C)NC(=O)C/C=C\[C@H]1C,–,"inconclusive: 3.98 µM [inhibitor, single point]"
O=C1c2ccccc2C(=O)C1(O)O,–,"inconclusive: 15.8 µM [inhibitor, full curve]"
O=C(O)C1CCN(c2ccc([N+](=O)[O-])cc2[N+](=O)[O-])CC1,–,"inconclusive: 20 µM [inhibitor, single point]"
C[C@@H]1Nc2ccc(Cl)cc2S(=O)(=O)N1,–,"inconclusive: 28.2 µM [inhibitor, partial curve, poor fit]"
COc1ccc(/C=C2\SC(=S)N(CCC(=O)Nc3ccc(C(=O)O)cc3)C2=O)cc1,–,"inconclusive: 26.7 µM [inhibitor, single point]"
Cc1ccc(CN2CCc3c(OCC(=O)Nc4cc(C)ccc4C)cccc3C2=O)cc1,–,"inconclusive: 0.0112 µM [inhibitor, full curve]"
COc1ccc(NC(=O)COc2ccc(/C=N/NC(=O)c3cccnc3)cc2OC)cc1,–,"inconclusive: 0.112 µM [inhibitor, full curve, poor fit]"
CCOC(=O)c1cnc2ccc(OC)cc2c1NCc1ccccc1,–,"inconclusive: 28.2 µM [inhibitor, single point]"
CC[n+]1c(/C=C/N(C)c2ccccc2)n(-c2ccccc2)c2ccc(-c3nc4ccccc4s3)cc21,–,"inactive and inconclusive: 15.8 µM [inhibitor, single point]"
O=C(CSc1nnc(-c2ccncc2)n1Cc1ccco1)Nc1ccccc1F,–,"inconclusive: 7.94 µM [inhibitor, full curve, poor fit]"
O=C(Cn1cnc2sc(-c3ccccc3)cc2c1=O)NCc1ccco1,–,active: 31.6 µM
O=S(=O)(c1ccccc1Br)N(Cc1ccccc1)Cc1ccco1,–,"inconclusive: 5.01 µM [inhibitor, full curve, poor fit]"
Cc1ccc2nc(-c3ccc(NS(C)(=O)=O)cc3)cc(-c3ccccc3)c2c1,–,"inconclusive: 28.2 µM [inhibitor, single point]"
COC(=O)[C@@]1(Cc2ccc(OC)cc2)[C@H]2c3cc(C(=O)N(C)C)n(Cc4ccc(C)o4)c3C[C@H]2CN1C(=O)c1ccccc1,inactive: 18.4%,–

SMILES,"activity change, negative = inhibition",Potency
Cc1nc2ccc(S(=O)(=O)N(C)CC(=O)Nc3ccccc3F)cc2s1,–,"inconclusive: 44.7 µM [inhibitor, single point]"
O=C(CCCN1C(=O)/C(=C/c2ccco2)SC1=S)Nc1ccccc1C(=O)O,–,active: 20 µM
NC(=O)Oc1cccc(OC(N)=O)c1,–,"inconclusive: 29.9 µM [inhibitor, single point]"
Cc1ccc(CNC(=O)Cn2ccc3cc(S(=O)(=O)N4CCCC4)ccc32)o1,inactive: -8.56%,–
CCN(CC)c1ccc(/C=c2\sc3nc4ccccc4n3c2=O)c(O)c1,–,"inconclusive: 22.4 µM [inhibitor, single point]"
Clc1ccc(-c2nnnn2-c2ccc(Cl)c(Cl)c2)cc1Cl,–,"inconclusive: 39.8 µM [inhibitor, single point]"
CCCOc1ccc(-c2nc(-c3ccc([N+](=O)[O-])cc3)cs2)cc1,–,"inconclusive: 6.31 µM [inhibitor, single point]"
FC(F)(F)c1cccc(Sc2cc(C(F)(F)F)nc(-c3ccccn3)n2)c1,–,"inconclusive: 5.01 µM [inhibitor, full curve, poor fit]"
CN1CCN(C(=O)C2=C[C@@H](c3coc4ccccc4c3=O)C[C@@H](OCCCCO)O2)CC1,–,"inconclusive: 8.91 µM [inhibitor, single point]"
Cc1cccc(N2CCN(C(=O)c3ccc(Cl)c(S(=O)(=O)NCc4ccco4)c3)CC2)c1C,–,"inconclusive: 44.7 µM [inhibitor, single point]"
CN(C)CCSc1nnc2[nH]c3ccccc3c2n1,–,"inconclusive: 39.8 µM [inhibitor, single point]"
COc1cccc(C(=O)Nc2cccc(-c3nnc(-c4ccco4)o3)c2)c1,–,"inconclusive: 31.6 µM [inhibitor, single point]"
CC(C)(C)c1nc(SCC(=O)Nc2nc3c(s2)CCCC3)c2ccccc2n1,–,"inconclusive: 3.16 µM [inhibitor, partial curve]"
COc1ccccc1Cc1nc(-c2cccnc2)no1,–,"inconclusive: 8.91 µM [inhibitor, partial curve, poor fit]"
COc1ccc(NC(=O)C2CCCO2)cc1 (configuration not stated),–,"inconclusive: 2.82 µM [inhibitor, single point]"
Cc1nc(SCC(=O)O)c(C#N)c2c1CCCC2,–,"inconclusive: 25.1 µM [inhibitor, partial curve]"
COc1ccc(C(=O)N2CCCC(CNC(=O)c3ccc(F)cc3)C2)cc1OC (configuration not stated),–,"inconclusive: 33.6 µM [inhibitor, single point]"
O=C(NNC(=O)C1CC=CCC1C(=O)O)c1ccc(Cl)cc1 (configuration not stated),–,"inconclusive: 17.8 µM [inhibitor, partial curve]"
Nc1nc(Nc2ccccc2)nc(NCCO)c1[N+](=O)[O-],–,"inconclusive: 8.91 µM [inhibitor, single point]"
O=C(Cn1cnc2ccccc2c1=O)Nc1cccc(S(=O)(=O)N2CCCCC2)c1,–,"inconclusive: 2.51 µM [inhibitor, partial curve]"
O=C(Nc1cc(C(=O)Nc2ccc(S(=O)(=O)O)cc2)cc(C(=O)Nc2ccc(S(=O)(=O)O)cc2)c1)Nc1cc(C(=O)Nc2ccc(S(=O)(=O)O)cc2)cc(C(=O)Nc2ccc(S(=O)(=O)O)cc2)c1,–,"inconclusive: 35.5 µM [inhibitor, single point]"

SMILES,"activity change, negative = inhibition",Potency
COC(=O)CCCC1=CC2=C(c3ccccc3)C(=O)C(C)(OC(=O)C3CCCC3)C(=O)C2=CN1CCN1CCOCC1 (configuration not stated),–,inactive
COc1ccccc1NC(=O)CSc1nnc(CCC(=O)Nc2ccccc2F)n1C,inactive: -0.82%,–
COC(=O)[C@@H]1C[C@@H]2CC[C@@H](O)C[C@@H]2N1Cc1ccc(N2CCOCC2)cc1,–,"inconclusive: 10 µM [inhibitor, full curve]"
Cc1nc2ccccc2c2oc(C(=O)Nc3ccc4c(c3)OCCO4)cc12,–,"inconclusive: 25.1 µM [inhibitor, single point]"
COc1ccc(OC)c(S(=O)(=O)Nc2ccc(O)c3ccccc23)c1,–,"inconclusive: 35.5 µM [inhibitor, partial curve, poor fit]"
O=[N+]([O-])c1cc(Cl)cc(/C=N/NC(=S)Nc2cc(S(=O)(=O)N3CCOCC3)ccc2Cl)c1O,–,"inconclusive: 1.58 µM [inhibitor, full curve, poor fit]"
O=C(CSc1cccc2cccc(Cl)c12)NCc1cccs1,–,"inconclusive: 31.6 µM [inhibitor, single point]"
N=C1Sc2ccccc2C2=NCCCN12,inactive: 0.135%,–
CS(=O)(=O)c1ccc2c(c1)sc1nc(=O)c(/C=C3/C=CC(=O)C(O)=C3)c(N)n12,–,active: 25.1 µM
Cc1ccc(C)c(C(=O)CCC(=O)O)c1,–,"inconclusive: 0.0355 µM [inhibitor, full curve, poor fit]"
CC(C)n1c(O)c(N=NC(=O)Cn2ccc(C(F)(F)F)n2)c2ccccc21,–,"inconclusive: 0.0025 µM [inhibitor, full curve, poor fit]"
O=C1C(Cl)=C(NC2CCc3ccccc32)C(=O)c2ncccc21 (configuration not stated),–,"inconclusive: 2 µM [inhibitor, full curve]"
Cc1cc(C)cc(C(=O)NCC(=O)OCC(=O)N(C)C2CCS(=O)(=O)C2)c1 (configuration not stated),inactive: -0.562%,–
CCCC(=O)Nc1ccc(C(=O)O)cc1NC(=O)CCC,–,"inconclusive: 0.0045 µM [inhibitor, full curve, poor fit]"
O=C(OC1CCOC1=O)c1ccc(Cl)c(S(=O)(=O)N2CCCCC2)c1 (configuration not stated),–,"inconclusive: 22.4 µM [inhibitor, single point]"
Cc1nc(Nc2ccccc2)c2nc(-c3ccccc3)n(CCCN3CCCCC3C)c2n1 (configuration not stated),–,"inconclusive: 44.7 µM [inhibitor, single point]"
CCCCNc1c2c3c(cccc3n(C)c1=O)C(=O)c1ccccc1-2,inactive: -3.33%,–
CCCOC(=O)c1sc2nc3c(cc2c1N)C(=O)CCC3,inactive: 0.971%,–
Cc1nc2ccc(NC(=O)CS(=O)(=O)c3ccc(F)cc3)cc2s1,inactive: 3.71%,–
OCc1cc2c(cn1)[nH]c1ccccc12,inactive: -2.17%,–

# Source: PubChem BioAssay AID2517 (National Center for Advancing Translational Sciences (NCATS), 2010)
